# Results from paper PMC12040169 (PLOS Biology, 2025).
# The other results are listed elsewhere or left out.
# System: T1, CTL2-GFP (C. trachomatis L2/434/Bu, GFP-expressing)
# T1 construct: L2/434/Bu, GFP-expressing
# Design: species or system HeLa; Intracellular C. trachomatis growth in HeLa cells, bulk GFP fluorescence relative to DMSO
# Conditions: bulk GFP, single well; 28.5 h, 10 µM; inhibitor
row,Compound,% of control remaining [%]
1,Nc1c(-c2ccc3c(c2)CCO3)cnc2ncccc12 [CBK083678],119.846
2,COc1ccc2c(c1)C(O)CC1(CCN(CC(O)c3ccc(-c4ccccc4)cc3)CC1)O2 (centres unmarked) [CBK286398],170.41
3,Cc1ccccc1-n1ncc2c(N3CCCC3)ncnc21 [CBK287648],92.1441
4,CN(C)CC(C)(C)CNC(=O)c1cc(-c2ccc(C(=O)N3CCOCC3)cc2)cnc1N [CBK158574],100
5,O=[N+]([O-])c1ccc(Oc2ccccc2)nc1 [CBK002726],136.712
6,Cc1ccc2nc(NC(=O)C3COc4ccccc4O3)sc2c1 (centres unmarked) [CBK287366],109.561
7,COc1ccc(N(C(C)C(=O)NN=C2CCN(C)CC2)S(C)(=O)=O)cc1 (centres unmarked) [CBK262390],100
8,CCCCNC(=O)c1ccc2nc(C)c(N(C)CC3CCCCC3)n2c1 [CBK145913],85.4518
9,O=C1COc2ccccc2CCCC[C@@H]2CNCC[C@H]2N1 [CBK292038],126.462
10,NS(=O)(=O)c1ccc(CCNC(=O)c2ccc([N+](=O)[O-])cc2)cc1 [CBK263773],98.1436
11,O=C(Cn1cnc2ccccc2c1=O)NCCc1ccsc1 [CBK287844],125.419
12,c1ccc(-c2c(-c3ccccc3)n(Cc3ccco3)c3ncn4nc(-c5cccnc5)nc4c23)cc1 [CBK265374],112.917
13,COc1ccc(CCNC(=O)c2cnc(-c3ccc(Cl)cc3)c(-c3cccc(CNC(C)=O)c3)c2)cc1OC [CBK164413],110.105
14,O=C(O)C1CCCN1S(=O)(=O)c1ccc(Cl)cc1 (centres unmarked) [CBK261249],100
15,Cc1c(C(=O)O)ccc2c1N[C@@H](c1ccc(OCC#N)cc1)C1CC=CC21 (some centres unmarked) [CBK287124],132.973
16,CCOc1ccc2nc(NC(=N)N)nc(C)c2c1 [CBK010384C],19.5285
17,Cc1nc(C)c(CC(=O)N(C)CC2OCCc3ccccc32)s1 (centres unmarked) [CBK281478],115.79
18,O=C(CSc1nnnn1CC1CCCO1)N1CC=C(c2ccccc2)CC1 (centres unmarked) [CBK295160],146.157
19,O=C(O)C1(Cc2ccc(-c3ccccc3)cc2)CCNC1 (centres unmarked) [CBK281687],118.434
20,CCC(NC(=O)CCN1Cc2ccccc2C1=O)c1ccc(F)cc1 (centres unmarked) [CBK282657],90.3959
21,O=C(CC1SC(N2CCOCC2)=NC1=O)Nc1cccc(C(=O)O)c1 (centres unmarked) [CBK300498],120.309
22,Cc1ccc(NC(=O)CC(C(=O)O)N(C)C)cc1 (centres unmarked) [CBK267068],166.341
23,COc1cc2c(cc1CN1CCOCC1CC(=O)O)CCC2 (centres unmarked) [CBK307277],110.502
24,CC(=O)Nc1nc(C)c(S(=O)(=O)Nc2nc(C(C)C)ns2)s1 [CBK051227],108.801
25,COc1cc(C2C3=C(COC3=O)Nc3[nH]nc(C)c32)ccc1O (centres unmarked) [CBK288146],104.109
26,O=C(O)c1cc(S(=O)(=O)NCc2ccco2)ccc1Cl [CBK058905],150.343
27,CC(=O)Nc1ccc(NC(=O)CC2SCCNC2=O)cc1 (centres unmarked) [CBK269921],117.761

# By substructure, those above containing a carbonyl joined to an NH by a bond outside any ring (12)
row,Compound,% of control remaining [%]
4,CN(C)CC(C)(C)CNC(=O)c1cc(-c2ccc(C(=O)N3CCOCC3)cc2)cnc1N [CBK158574],100
6,Cc1ccc2nc(NC(=O)C3COc4ccccc4O3)sc2c1 (centres unmarked) [CBK287366],109.561
7,COc1ccc(N(C(C)C(=O)NN=C2CCN(C)CC2)S(C)(=O)=O)cc1 (centres unmarked) [CBK262390],100
8,CCCCNC(=O)c1ccc2nc(C)c(N(C)CC3CCCCC3)n2c1 [CBK145913],85.4518
10,NS(=O)(=O)c1ccc(CCNC(=O)c2ccc([N+](=O)[O-])cc2)cc1 [CBK263773],98.1436
11,O=C(Cn1cnc2ccccc2c1=O)NCCc1ccsc1 [CBK287844],125.419
13,COc1ccc(CCNC(=O)c2cnc(-c3ccc(Cl)cc3)c(-c3cccc(CNC(C)=O)c3)c2)cc1OC [CBK164413],110.105
20,CCC(NC(=O)CCN1Cc2ccccc2C1=O)c1ccc(F)cc1 (centres unmarked) [CBK282657],90.3959
21,O=C(CC1SC(N2CCOCC2)=NC1=O)Nc1cccc(C(=O)O)c1 (centres unmarked) [CBK300498],120.309
22,Cc1ccc(NC(=O)CC(C(=O)O)N(C)C)cc1 (centres unmarked) [CBK267068],166.341
24,CC(=O)Nc1nc(C)c(S(=O)(=O)Nc2nc(C(C)C)ns2)s1 [CBK051227],108.801
27,CC(=O)Nc1ccc(NC(=O)CC2SCCNC2=O)cc1 (centres unmarked) [CBK269921],117.761

# Following part.

row,Compound,% of control remaining [%]
1,O=C(NCCN1CCC(O)(c2cccc(F)c2)CC1)c1cccs1 [CBK282450],78.2829
2,O=S(=O)(NCCSc1nnnn1-c1ccccc1)c1cccs1 [CBK268013],87.3566
3,CCN(CC(=O)N1CCN(c2cc(Cl)ccc2C)CC1)S(=O)(=O)c1ccc2ccccc2c1 [CBK268827],135.396
4,C[C@@H]1CN(C(=O)OCc2ncc(F)cc2F)C[C@H](C)O1 [CBK200286],60.1402
5,COc1cc(C)c(S(=O)(=O)Nc2ccc(CC(=O)O)cc2)cc1C [CBK299782],136.326
6,COCCCn1c(=O)[nH]c2ncc(-c3cc(C(C)C)ccc3OC)nc21 [CBK064351],159.308
7,Cc1cccc(OCC(=O)Nc2ncn(Cc3cccnc3)n2)c1 [CBK304919],83.2914
8,Cc1noc(C)c1S(=O)(=O)Nc1ccc2cc(Br)cnc2n1 [CBK073893],102.271
9,Cc1ccc(C(=O)NNC(=O)c2ccc([N+](=O)[O-])cc2)cc1 [CBK261793],99.5641
10,Cc1ccc(C(=O)N2CCn3c2nc2ccccc23)cc1 [CBK288204],133.268
11,COc1ccc(C2=NNC(c3ccc(C(=O)O)cc3)C2)cc1 (centres unmarked) [CBK287167],144.764
12,O=c1n(CC2CCCCC2)c2ccccc2n1S(=O)(=O)CCc1cccc2ccccc12 [CBK106525],111.395
13,Nc1ncc(CCCN2CCOCC2)c(N)n1 [CBK025981],117.819
14,CC(C)c1ccc(/C=C/C(=O)N2CCN(C3CCN(C)CC3)CC2)cc1 [CBK149094],96.9297
15,COC(=O)c1c(NC(=S)NCCn2cc(Br)cn2)sc2c1CCC(C)C2 (centres unmarked) [CBK266886],154.105
16,COc1ccc(NC(=O)C2CCCN2c2nc(O)cc(C(F)(F)F)n2)cc1 (centres unmarked) [CBK003704],100
17,CN(C)CCNC(=O)c1cccc(-c2cnc3[nH]c(=O)n(Cc4ccc(S(C)(=O)=O)cc4)c3n2)c1 [CBK065069],147.45
18,N#CC1=C(N)N2C(=C(C#N)C13CCN(Cc1ccccc1)CC3)Nc1ccccc12 [CBK267241],94.9467
19,CC(C)NC(=O)C1(Cc2ccc(-c3ccccc3)cc2)CCN(C(=O)C2CCC2)CC1 [CBK285750],103.325
20,CSCCN1CCN(c2nccnc2Oc2ccc(F)cc2)CC1 [CBK083028T],99.2267
21,COc1cc2c(cc1NC(=O)C(C)Oc1ccccc1)oc1ccccc12 (centres unmarked) [CBK264061],93.2162
22,c1ccc(NCCOc2cncc(N3CCCC3)n2)cc1 [CBK115670],110.521
23,CCOC(=O)c1cnc2c(Cl)cc(Cl)cc2c1NCCN1CCOCC1 [CBK307278],157.601
24,CCN(CC)c1c(C)nc2ccc(C(=O)N3CCN(C)CC3)cn12 [CBK145955],100
25,c1cn2c(-c3ccoc3)cnc(N3CCOCC3)c2n1 [CBK091292],143.82
26,CC(C)C(=O)Nc1cc2ccccc2c(-c2cc(F)cc(F)c2)n1 [CBK085775],111.666
27,COCCn1c(SCc2cc(=O)oc3cc(C)ccc23)nnc1-c1ccc(Cl)cc1 [CBK297517],137.306

row,Compound,% of control remaining [%]
1,OCCN(Cc1cccnc1)Cc1cccn1-c1ccc(F)cc1 [CBK283023],92.9022
2,O=C(NCC1c2ccccc2CCN1C(=O)CN1C(=O)c2ccccc2C1=O)C1CCCCC1 (centres unmarked) [CBK262582],111.193
3,CCn1nc(C)c(-c2cncn2CC(C)n2nc(C)cc2C)c1C (centres unmarked) [CBK281777],136.584
4,Nc1ncc(-c2ccco2)nc1NCc1ccco1 [CBK063682],161.644
5,O/N=C1/c2ccccc2/C(=N/O)C1c1ccccc1 [CBK261122],100.423
6,O=S(=O)(Nc1ccc(C(O)(C(F)(F)F)C(F)(F)F)cc1)c1cccc2nsnc12 [CBK062096],145.44
7,O=C(NNC(=S)NCCc1ccccc1)c1ccc(Br)o1 [CBK266818],122.175
8,Cc1cc2ccccc2n1CCCNS(=O)(=O)c1ccc2[nH]c(=O)[nH]c(=O)c2c1 [CBK286362],109.733
9,Cc1csc(SC(C)C(=O)N2CCc3ccccc32)n1 (centres unmarked) [CBK305909],49.4866
10,O=C(O)CCC(=O)N1CCC(c2nnc3ccccn23)CC1 [CBK287920],135.272
11,CC(C)(C)OC(=O)NC1CCc2ccccc2N(Cc2ccccc2)C1=O (centres unmarked) [CBK013366],101.482
12,O=C(CN1C(=O)N2CCCN=C2c2ccccc21)N1CCCCCC1 [CBK284399],119.372
13,CC(=O)N(Cc1cccnc1)c1nc2cc3c(cc2s1)OCCO3 [CBK287696],138.182
14,c1ccc(Cn2c3ccccc3c3nnc(SCc4ccc5nonc5c4)nc32)cc1 [CBK267517],144.082
15,COC(=O)c1sccc1NC(=O)c1ccc(F)cc1Cl [CBK270325],148.897
16,CN(C(=O)CSc1nnn(C)n1)c1ccccc1 [CBK058129],116.079
17,COc1ccc(Cl)cc1N1CCN(Cc2ncc[nH]2)CC1 [CBK126418],111.339
18,O=C(CN1CCN(c2ccccc2)CC1)Nc1ccc(Cl)cc1C(=O)c1ccccc1 [CBK265827],162.111
19,Fc1ccccc1COc1cccc(CNCc2ccccn2)c1 [CBK268552C],98.1287
20,O=[N+]([O-])c1ccc(/C=N/c2ccc(Cc3ccc(/N=C/c4ccc([N+](=O)[O-])s4)cc3)cc2)s1 [CBK261228],115.549
21,CNC(=O)c1ccc(-c2cnc(NCC3CCN(C(=O)OC(C)(C)C)CC3)cn2)cc1 [CBK173726],121.698
22,CCOC(=O)c1sc(NS(=O)(=O)c2cccc3cccnc23)nc1C [CBK047443],104.327
23,CCCNc1nc(-c2cccc(O)c2)cn2ccnc12 [CBK066395],102.841
24,COc1ccc(-c2nc(NC(=O)CSc3n[nH]c(N)n3)ns2)cc1 [CBK267236],174.938
25,COc1ccc(-c2ccc(OC)cc2C(=O)Nc2ccc3c(c2)N(C)C(=O)CO3)cc1 [CBK285650],92.3437
26,COC(=O)c1cn([C@H]2CO[C@H]3[C@@H]2OC[C@@H]3NS(=O)(=O)Cc2ccccc2)nn1 [CBK289498],135.357

# Among those listed so far, two have a CF3 group.
row,Compound,% of control remaining [%]
16,COc1ccc(NC(=O)C2CCCN2c2nc(O)cc(C(F)(F)F)n2)cc1 (centres unmarked) [CBK003704],100
6,O=S(=O)(Nc1ccc(C(O)(C(F)(F)F)C(F)(F)F)cc1)c1cccc2nsnc12 [CBK062096],145.44
